Laboratory results: article PMC3711425

Protein sequences, listed by entry. Tags and fused reporters are not part of them. Lines headed by an entry give the natural chain unless they say otherwise; changes in a name come on top. Chains listed by the source or under a name are the forms on record and can include a tag or linker.
UniProt O95365: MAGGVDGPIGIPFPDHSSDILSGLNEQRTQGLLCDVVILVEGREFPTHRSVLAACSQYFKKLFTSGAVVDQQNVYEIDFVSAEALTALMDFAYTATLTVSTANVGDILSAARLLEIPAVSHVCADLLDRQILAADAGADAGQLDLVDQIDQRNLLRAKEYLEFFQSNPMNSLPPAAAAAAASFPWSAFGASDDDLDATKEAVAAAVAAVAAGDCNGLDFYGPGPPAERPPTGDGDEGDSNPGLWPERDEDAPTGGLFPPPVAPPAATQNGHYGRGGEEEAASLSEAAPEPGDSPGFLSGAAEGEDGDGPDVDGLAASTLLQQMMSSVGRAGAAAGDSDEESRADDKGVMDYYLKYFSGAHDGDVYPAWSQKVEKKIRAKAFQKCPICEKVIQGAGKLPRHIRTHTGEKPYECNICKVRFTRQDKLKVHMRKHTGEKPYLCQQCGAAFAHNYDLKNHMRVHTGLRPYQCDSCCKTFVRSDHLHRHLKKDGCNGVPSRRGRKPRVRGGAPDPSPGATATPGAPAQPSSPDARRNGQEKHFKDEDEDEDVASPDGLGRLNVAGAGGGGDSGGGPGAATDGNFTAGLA
in vitro synthesized [35S]-methionine-labelled MBD3 (O95983-2, form named): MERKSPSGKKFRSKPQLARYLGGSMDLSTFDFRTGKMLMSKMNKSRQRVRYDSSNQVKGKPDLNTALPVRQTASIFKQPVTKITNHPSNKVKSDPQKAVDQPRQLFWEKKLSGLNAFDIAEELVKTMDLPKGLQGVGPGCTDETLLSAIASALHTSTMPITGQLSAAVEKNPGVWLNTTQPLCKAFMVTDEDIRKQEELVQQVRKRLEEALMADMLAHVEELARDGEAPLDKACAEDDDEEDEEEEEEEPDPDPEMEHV
UniProt O75376: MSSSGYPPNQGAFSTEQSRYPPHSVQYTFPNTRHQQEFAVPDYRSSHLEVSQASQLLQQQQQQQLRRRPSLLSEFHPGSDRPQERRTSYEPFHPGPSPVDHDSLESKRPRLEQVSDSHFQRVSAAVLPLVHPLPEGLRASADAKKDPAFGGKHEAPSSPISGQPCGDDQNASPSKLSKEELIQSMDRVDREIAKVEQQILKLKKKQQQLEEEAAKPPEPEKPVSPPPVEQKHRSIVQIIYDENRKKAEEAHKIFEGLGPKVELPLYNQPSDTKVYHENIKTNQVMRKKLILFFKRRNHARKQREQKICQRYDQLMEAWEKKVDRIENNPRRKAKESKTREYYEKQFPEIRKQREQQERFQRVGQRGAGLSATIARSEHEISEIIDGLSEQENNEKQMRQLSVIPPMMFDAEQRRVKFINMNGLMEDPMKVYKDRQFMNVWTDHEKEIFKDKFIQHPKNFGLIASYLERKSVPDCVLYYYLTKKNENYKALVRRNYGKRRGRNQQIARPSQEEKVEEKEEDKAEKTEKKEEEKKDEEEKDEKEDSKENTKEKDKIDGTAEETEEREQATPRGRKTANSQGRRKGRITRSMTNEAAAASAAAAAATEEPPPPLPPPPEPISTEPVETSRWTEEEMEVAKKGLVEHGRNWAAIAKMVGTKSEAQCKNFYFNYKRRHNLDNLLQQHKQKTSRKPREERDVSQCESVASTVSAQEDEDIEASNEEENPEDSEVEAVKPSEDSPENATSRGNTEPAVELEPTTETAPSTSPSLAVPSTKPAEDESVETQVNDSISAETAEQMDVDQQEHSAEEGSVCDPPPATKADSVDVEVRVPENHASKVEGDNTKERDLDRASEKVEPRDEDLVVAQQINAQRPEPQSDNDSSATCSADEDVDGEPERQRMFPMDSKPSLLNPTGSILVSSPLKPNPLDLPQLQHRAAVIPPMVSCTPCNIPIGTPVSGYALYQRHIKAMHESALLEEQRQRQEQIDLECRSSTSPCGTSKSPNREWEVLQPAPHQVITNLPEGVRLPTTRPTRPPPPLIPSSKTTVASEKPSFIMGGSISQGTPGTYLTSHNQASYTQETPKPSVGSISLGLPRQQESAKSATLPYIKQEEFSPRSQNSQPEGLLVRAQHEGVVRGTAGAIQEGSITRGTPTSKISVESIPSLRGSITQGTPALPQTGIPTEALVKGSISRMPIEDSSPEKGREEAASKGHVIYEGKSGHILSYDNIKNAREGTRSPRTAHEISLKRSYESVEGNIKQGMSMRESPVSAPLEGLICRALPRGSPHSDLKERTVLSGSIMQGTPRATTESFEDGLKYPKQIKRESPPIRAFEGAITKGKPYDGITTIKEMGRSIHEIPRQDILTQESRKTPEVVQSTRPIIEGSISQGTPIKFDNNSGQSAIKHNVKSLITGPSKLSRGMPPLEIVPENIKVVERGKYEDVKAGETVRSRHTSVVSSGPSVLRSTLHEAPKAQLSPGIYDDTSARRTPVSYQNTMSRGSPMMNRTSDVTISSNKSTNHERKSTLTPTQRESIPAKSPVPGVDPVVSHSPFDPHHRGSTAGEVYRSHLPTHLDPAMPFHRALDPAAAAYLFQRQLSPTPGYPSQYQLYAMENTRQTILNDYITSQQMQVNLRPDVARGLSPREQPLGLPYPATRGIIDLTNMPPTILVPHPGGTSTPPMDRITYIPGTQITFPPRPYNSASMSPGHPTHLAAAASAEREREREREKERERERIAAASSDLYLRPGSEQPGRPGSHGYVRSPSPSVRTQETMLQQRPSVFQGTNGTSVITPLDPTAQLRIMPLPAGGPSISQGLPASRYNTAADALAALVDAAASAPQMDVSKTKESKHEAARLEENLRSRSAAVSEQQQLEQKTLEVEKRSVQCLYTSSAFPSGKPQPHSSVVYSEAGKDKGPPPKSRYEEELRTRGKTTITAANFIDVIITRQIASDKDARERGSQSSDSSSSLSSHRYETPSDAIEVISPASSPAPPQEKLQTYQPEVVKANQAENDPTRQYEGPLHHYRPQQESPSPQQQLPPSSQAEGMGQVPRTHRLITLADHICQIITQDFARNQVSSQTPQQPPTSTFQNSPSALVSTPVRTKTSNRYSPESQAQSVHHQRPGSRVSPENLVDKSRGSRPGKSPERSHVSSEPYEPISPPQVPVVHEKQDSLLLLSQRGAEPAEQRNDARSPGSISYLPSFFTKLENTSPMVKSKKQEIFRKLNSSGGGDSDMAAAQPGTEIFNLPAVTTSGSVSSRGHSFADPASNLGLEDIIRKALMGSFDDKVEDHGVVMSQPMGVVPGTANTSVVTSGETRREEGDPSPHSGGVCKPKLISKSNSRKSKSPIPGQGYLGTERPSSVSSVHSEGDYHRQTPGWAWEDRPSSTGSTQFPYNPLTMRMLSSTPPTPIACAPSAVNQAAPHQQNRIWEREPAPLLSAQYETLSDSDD
UniProt Q6W2J9: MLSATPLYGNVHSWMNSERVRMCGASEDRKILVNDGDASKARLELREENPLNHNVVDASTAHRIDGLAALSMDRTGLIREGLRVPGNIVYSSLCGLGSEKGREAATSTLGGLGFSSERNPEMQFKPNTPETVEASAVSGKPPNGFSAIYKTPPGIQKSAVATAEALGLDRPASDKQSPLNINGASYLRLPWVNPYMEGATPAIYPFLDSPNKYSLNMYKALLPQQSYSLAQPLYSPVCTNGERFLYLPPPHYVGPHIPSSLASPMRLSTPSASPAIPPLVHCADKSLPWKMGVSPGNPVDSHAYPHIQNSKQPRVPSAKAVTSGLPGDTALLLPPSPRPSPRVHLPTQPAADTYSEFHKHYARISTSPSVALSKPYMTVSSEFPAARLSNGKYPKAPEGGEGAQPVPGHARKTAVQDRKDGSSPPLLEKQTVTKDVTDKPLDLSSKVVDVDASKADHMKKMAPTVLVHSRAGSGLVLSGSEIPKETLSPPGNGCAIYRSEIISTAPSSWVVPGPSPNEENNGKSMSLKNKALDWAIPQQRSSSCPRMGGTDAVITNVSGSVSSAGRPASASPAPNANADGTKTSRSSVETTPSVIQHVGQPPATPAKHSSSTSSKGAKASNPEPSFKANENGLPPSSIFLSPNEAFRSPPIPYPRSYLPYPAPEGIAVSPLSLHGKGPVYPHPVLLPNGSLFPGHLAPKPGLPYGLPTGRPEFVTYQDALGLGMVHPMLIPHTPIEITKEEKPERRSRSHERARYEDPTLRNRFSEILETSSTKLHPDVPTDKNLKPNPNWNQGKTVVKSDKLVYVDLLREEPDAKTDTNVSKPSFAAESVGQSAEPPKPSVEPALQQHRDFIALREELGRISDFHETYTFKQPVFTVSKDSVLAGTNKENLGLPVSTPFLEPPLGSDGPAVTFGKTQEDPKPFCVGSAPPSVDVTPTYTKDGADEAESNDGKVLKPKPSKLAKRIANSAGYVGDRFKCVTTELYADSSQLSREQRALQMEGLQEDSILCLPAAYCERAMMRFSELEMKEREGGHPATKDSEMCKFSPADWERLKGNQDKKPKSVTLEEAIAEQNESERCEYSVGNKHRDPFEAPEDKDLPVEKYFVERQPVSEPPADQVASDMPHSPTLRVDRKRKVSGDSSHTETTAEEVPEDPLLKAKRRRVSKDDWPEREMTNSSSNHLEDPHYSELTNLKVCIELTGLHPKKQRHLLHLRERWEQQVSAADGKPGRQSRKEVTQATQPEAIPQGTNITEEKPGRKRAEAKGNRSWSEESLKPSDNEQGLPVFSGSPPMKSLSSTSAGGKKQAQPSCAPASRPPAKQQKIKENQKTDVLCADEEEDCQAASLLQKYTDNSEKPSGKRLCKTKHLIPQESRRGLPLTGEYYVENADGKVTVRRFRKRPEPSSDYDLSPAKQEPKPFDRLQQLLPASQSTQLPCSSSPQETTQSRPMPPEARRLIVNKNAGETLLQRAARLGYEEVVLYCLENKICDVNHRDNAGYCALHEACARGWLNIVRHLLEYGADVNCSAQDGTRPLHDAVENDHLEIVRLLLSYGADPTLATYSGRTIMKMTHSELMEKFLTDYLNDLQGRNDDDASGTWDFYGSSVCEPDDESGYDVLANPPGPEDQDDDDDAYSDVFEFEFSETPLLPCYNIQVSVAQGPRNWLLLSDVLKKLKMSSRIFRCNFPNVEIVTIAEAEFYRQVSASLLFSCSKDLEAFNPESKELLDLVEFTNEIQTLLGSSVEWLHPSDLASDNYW

How the values were obtained:
[1] = molecular target: GST-fused zinc-finger DNA-binding domain of FBI-1 (human) (UniProt O95365); assay: pull-down; recombinant GST fusion proteins incubated with in vitro synthesized [35S]-methionine-labelled MBD3, precipitated, 10% SDS-PAGE, autoradiography; only the target purified
[2] = molecular target: GAL4-fused zinc-finger DNA binding domain of FBI-1 (human) (UniProt O95365); assay: two-hybrid; mammalian two-hybrid in HEK293 cells: GAL4 fused FBI-1-ZF, VP-16 fused co-repressors, reporter plasmid, with or without MBD3 expression vector

Substance: in vitro synthesized [35S]-methionine-labelled MBD3 (from UniProt O95983-2 1-259)
- binding [1]: binds

Substance: VP16-fused nuclear receptor corepressor (NCoR) (from UniProt O75376 1-2440)
- binding [2]: binds

Substance: VP16-fused BCL-6 corepressor (BCoR) (from UniProt Q6W2J9 1-1755)
- binding [2]: binds

Results are given in words; binding and its absence hold for the method and conditions named. Binding calls can cover weak binding; strength is not graded here. For part of these data: In cells and extracts the contact can be indirect.
